Laboratory results: publication PMC12131583
Results are given in words; binding and its absence hold for the method and conditions named. Binding seen in cells or lysates may run through a third protein. Some binding calls cover weakened binding; strength is not graded here. Tags and fused reporters may be left off the sequences shown.

Amino acid sequences for entries named in this document (tags omitted).
UniProt P17742: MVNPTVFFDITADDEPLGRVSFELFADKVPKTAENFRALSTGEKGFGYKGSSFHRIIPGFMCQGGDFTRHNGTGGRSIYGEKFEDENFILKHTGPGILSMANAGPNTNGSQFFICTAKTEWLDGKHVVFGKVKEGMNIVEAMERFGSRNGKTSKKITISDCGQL

Molecular target: T1, HA-tagged PARP3 (PARP3-HA) (human) (UniProt Q9Y6F1)
T1 sequence: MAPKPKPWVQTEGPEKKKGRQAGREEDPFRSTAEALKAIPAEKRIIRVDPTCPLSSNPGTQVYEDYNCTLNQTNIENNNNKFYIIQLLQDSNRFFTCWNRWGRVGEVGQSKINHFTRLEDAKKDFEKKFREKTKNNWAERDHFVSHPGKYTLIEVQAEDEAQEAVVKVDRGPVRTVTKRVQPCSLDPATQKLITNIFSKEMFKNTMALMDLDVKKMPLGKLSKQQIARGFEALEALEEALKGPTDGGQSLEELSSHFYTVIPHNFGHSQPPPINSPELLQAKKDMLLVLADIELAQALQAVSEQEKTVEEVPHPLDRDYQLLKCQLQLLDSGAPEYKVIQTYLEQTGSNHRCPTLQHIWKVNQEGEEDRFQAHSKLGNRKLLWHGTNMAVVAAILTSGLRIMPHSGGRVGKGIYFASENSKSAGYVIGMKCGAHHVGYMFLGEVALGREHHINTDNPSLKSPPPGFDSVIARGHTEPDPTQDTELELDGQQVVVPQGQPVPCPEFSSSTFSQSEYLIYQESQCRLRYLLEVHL
Assay: co-IP; 500 ug precleared cell lysate in IP buffer (50 mM Hepes, 150 mM NaCl, 10% glycerol, 0.1% Triton X-100, 20 mM MgCl2, 1% EDTA), IP antibody at 4 C overnight, Protein A+G magnetic beads 3 to 4 h, western blot; cells and IP antibody of this experiment not stated

## Ppia (as used in the Co-IP validation, Fig. 3D) (from UniProt P17742 1-164)
  binding: binds
